Data published in article PMC11729874, “How J-chain ensures the assembly of immunoglobulin IgM pentamers” (The EMBO Journal, 2024).

The chains behind the UniProt entries cited, without tags or fusion partners. Where a name states a change or a piece, a line headed by the entry shows the natural chain unless it says otherwise.
UniProt Q9BS26: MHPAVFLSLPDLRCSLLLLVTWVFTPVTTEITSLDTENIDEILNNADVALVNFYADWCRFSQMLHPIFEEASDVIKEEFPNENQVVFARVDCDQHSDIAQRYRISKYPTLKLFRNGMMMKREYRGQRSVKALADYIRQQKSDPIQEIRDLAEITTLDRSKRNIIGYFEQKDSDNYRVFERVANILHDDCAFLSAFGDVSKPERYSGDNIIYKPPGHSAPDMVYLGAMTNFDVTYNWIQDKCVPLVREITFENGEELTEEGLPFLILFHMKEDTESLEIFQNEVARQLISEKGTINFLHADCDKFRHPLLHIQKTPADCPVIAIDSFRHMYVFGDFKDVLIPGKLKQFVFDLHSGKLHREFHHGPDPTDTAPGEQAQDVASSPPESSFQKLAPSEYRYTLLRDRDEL

Target: T1, J-chain (JC), expressed in transfected cells (UniProt P01592)
T1 sequence: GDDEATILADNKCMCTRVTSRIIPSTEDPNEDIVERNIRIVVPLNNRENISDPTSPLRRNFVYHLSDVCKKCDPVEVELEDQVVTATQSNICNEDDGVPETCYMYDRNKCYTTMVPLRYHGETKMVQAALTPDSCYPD
Assay: nonreducing SDS-PAGE and western blot of covalent assemblies; HeLa-ERp44KO transfected with JC variants, H-Cµ234tp and/or H-ERp44 variants; RIPA lysates with 10 mM NEM and supernatants; Halo ligands, anti-JC, anti-ERp44, anti-µ

In the case of “H-ERp44 mutant lacking the RDEL motif (from UniProt Q9BS26)”, the binding is reported as “no binding”.

No constants are given. Whether binding was seen depends on the method and setting.
